{"source": "the supplement of paper PMC7024190", "note": "Counter-ions that a name gives are not always drawn. This is one part of the list. Single values are uncertain here, since repeats match poorly.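 The cells were human embryonic kidney cells carrying a Renilla luciferase gene, driven by the HSV-TK promoter, on a plasmid put in briefly by transfection. This is the first-round screen of about ten thousand compounds, looking for ones that raise reporter output.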"}
{"system": "HEK 293FT", "test": "log relative Renilla luciferase luminescence (reporter expression vs reference, reference not stated) (log (base not stated)); higher = higher recombinant reporter expression", "conditions": "10 µM; time after transfection 48 h"}
{"smiles": "O=C(O)c1c(Sc2ccccc2)c2cc(Cl)ccc2n1Cc1ccc(Cl)cc1", "log": 0.034}
{"smiles": "Cc1ccc(=O)n(-c2ccccc2)c1", "note": "[Pirfenidone]", "log": -0.0671}
{"smiles": "c1ccc(C(NCCNC(c2ccccc2)c2ccccc2)c2ccccc2)cc1", "note": "[AMN 082 dihydrochloride]", "log": -0.177}
{"smiles": "C=CCNC(=O)c1cc([N+](=O)[O-])cc2c(=O)[nH]c(Nc3ccc(Cl)c(Cl)c3)nc12", "log": 0.0106}
{"smiles": "C1CCC2(CC1)CCNCC2", "note": "[4,4-Pentamethylenepiperidine hydrochloride]", "log": -0.0696}
{"smiles": "O=c1cc(N2CCNCC2)oc2c(-c3ccccc3)cccc12", "log": -0.216}
{"smiles": "CO[C@@H]1[C@H](O)[C@@H](CO)O[C@H]1n1cnc2c(NC3CCCCC3)ncnc21", "log": 0.0191}
{"smiles": "CN1CCN(C2=Cc3ccccc3Oc3ccc(Cl)cc32)CC1", "log": 0.0419}
{"smiles": "COc1ccc2cccc(N3CCN(CCNC(=O)c4ccc(F)cc4)CC3)c2c1", "log": 0.0923}
{"smiles": "CCCCCCCC/C=C\\CCCCCCCC(=O)NCCO", "note": "[Oleylethanolamide]", "log": 0.137}
{"smiles": "C/C=C1\\C(=O)C[C@H]2[C@@H]3CCC4=CC(=O)CC[C@]4(C)[C@H]3CC[C@]12C", "note": "[Guggulsterone]", "log": -0.116}
{"smiles": "c1ccc(C(NCc2cccnc2)(c2ccccc2)c2ccccc2)cc1", "log": 0.0222}
{"smiles": "Cc1cc(/C(=C/Nc2ccc(Cl)cc2)C(=O)Nc2ccc(Cl)cc2)on1", "log": -0.162}
{"smiles": "CCC1=C(C)CN(C(=O)NCCc2ccc(S(=O)(=O)NC(=O)N[C@H]3CC[C@H](C)CC3)cc2)C1=O", "note": "[Glimepiride]", "log": -0.126}
{"smiles": "O=C(c1ccc(Nc2nccc(-c3cc4ccccc4s3)n2)cc1)N1CCC(N2CCCC2)CC1", "log": -0.108}
{"smiles": "C[C@@H]1CN(CCCn2c3ccccc3c3ccccc32)C[C@H](C)N1", "note": "[Rimcazole dihydrochloride]", "log": 0.0496}
{"smiles": "CCOc1ccccc1OC(c1ccccc1)C1CNCCO1", "note": "(centres undefined) [Reboxetine mesylate]", "log": 0.0677}
{"smiles": "C[N+](C)(C)CCCCCNCC12CC3CC(CC(C3)C1)C2", "log": 0.125}
{"smiles": "Cc1cc(C(=O)O)sc1C(N)C(=O)O", "note": "(centres undefined)", "log": 0.028}
{"smiles": "COc1cc2c(cc1O)CC[C@@H]1[C@@H]2CC[C@]2(C)[C@@H](O)CC[C@@H]12", "note": "[2-Methoxyestradiol]", "log": 0.0923}
{"smiles": "Cc1cccc(C#Cc2ccccc2)n1", "note": "[MPEP hydrochloride]", "log": 0.11}
{"smiles": "COc1ccccc1N1CCN(CCN2C(=O)c3ccccc3C(C)(C)C2=O)CC1", "note": "[ARC 239 dihydrochloride]", "log": -0.0346}
{"smiles": "Nc1[nH]nc2nc3ccccc3nc12", "log": 0.132}
{"smiles": "COc1ccc(S(=O)(=O)N2c3ccc(Cl)cc3[C@](O)(c3ccccc3Cl)[C@@H]2C(=O)N2CCC[C@H]2C(N)=O)cc1OC", "log": -0.151}
{"smiles": "O=c1nc2ccccc2c2n1CC(CN1CCN(c3ccccc3)CC1)N2", "note": "(centres undefined)", "log": 0.0792}
{"smiles": "C1COC(NC(C2CC2)C2CC2)=N1", "note": "[Rilmenidine hemifumarate]", "log": 0.101}
{"smiles": "CCN(CC)c1ccc(/C=N/NC(=O)c2ccc(O)cc2)cc1", "log": 0.0346}
{"smiles": "CC1=C(/C=C/C(C)=C/C=C/C(C)=C/C(=O)O)C(C)(C)CCC1", "note": "[Retinoic acid]", "log": 0.0827}
{"smiles": "COc1[nH]c2ccc(F)cc2c1C(=O)OCC1CCN(CCNS(C)(=O)=O)CC1.NS(=O)(=O)O", "log": 0.0285}
{"smiles": "Cc1ccc(NC2=CC(=O)c3sc(C)nc3C2=O)cc1", "note": "[Ryuvidine]", "log": -0.403}
{"smiles": "O=C(O)c1cc(O)c2ccc(Cl)cc2n1", "note": "[7-Chlorokynurenic acid]", "log": -0.507}
{"smiles": "Cc1ccccc1N=Nc1ccc(NC(=O)c2ccnn2C)c(C)c1", "log": 0.037}
{"smiles": "CCc1ccc(OCc2ccccc2C(=O)Nc2ccc3nc(C)cc(N)c3c2)cc1", "log": -0.155}
{"smiles": "CCOc1cc(C(=O)Nc2ccc(Cl)c(-c3nc4ccccc4[nH]3)c2)cc(OCC)c1OCC", "log": -0.122}
{"smiles": "Cn1ccc2cc3c(cc21)CCN3C(=O)Nc1cccnc1", "log": 0.03}
{"smiles": "COc1cc(N)c(Cl)cc1C(=O)OCCCN1CCCCC1", "log": -0.044}
{"smiles": "O=C(O)/C=C/c1ccc(Cn2ccnc2)cc1", "note": "[Ozagrel hydrochloride]", "log": 0.0238}
{"smiles": "O=C(O)CC/C=C\\C[C@H]1CO[C@@H](c2ccccc2Cl)O[C@H]1c1ccccc1O", "log": 0.0438}
{"smiles": "Fc1ccc(-c2nc3n(c2-c2ccncc2)CCS3)cc1", "log": 0.0646}
